Source: PubChem BioAssay AID587 (National Center for Advancing Translational Sciences (NCATS), 2007)
Hit rate of the full screen: of about 59,000 compounds, about 35 (0.06%) were called active. The inconclusive results got no clear call from the source; some entries with a clear call stand among them for comparison. No stated cut-off is given here; in the data, active means max dye-equivalent concentration above about 10 nM; inconclusive means between about 1.1 nM and that limit; inactive means weaker than that.

Assay: qHTS Assay for Spectroscopic Profiling in Texas Red Spectral Region
Conditions: Compound fluorescence, Texas Red channel, 547/618 nm; stronger effect = higher value
Procedure, shortened: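 Compound titrations in 100 mM Tris pH 8.0 were incubated 15 min at room temperature and read at 547 nm excitation / 618 nm emission. Texas Red six-point standard curve on each plate converted fluorescence to dye-equivalent concentration.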

SMILES | max dye-equivalent concentration
CCCC(=O)Nc1ccccc1NC(C)=O | inconclusive: 2 nM
CSc1nc2c(c(=O)[nH]c(=O)n2C)n1C/C=C(\C)Cl | inconclusive: 1.4 nM
COc1ccc(CN2CC(C(=O)NCCN3CCOCC3)CC2=O)cc1 (configuration not stated) | inconclusive: 1.5 nM
CCc1nnc(NC(=O)CSc2nnc(Cc3ccccc3)o2)s1 | inconclusive: 1.1 nM
Nc1ccn([C@H]2O[C@@H](COP(=O)(O)O)[C@@H](O)[C@H]2O)c(=O)n1 | inconclusive: 1.1 nM
Cc1nc(NCc2ccco2)c2c3c(sc2n1)CCC3 | inactive
O=C(Nc1ccc2ncccc2c1)Nc1ccc2ncccc2c1 | inconclusive: 1.2 nM
COc1ccc(CN2CC(C(=O)NCc3cccc(OC)c3)CC2=O)cc1 (configuration not stated) | inconclusive: 1.4 nM
O=C(CN1CCN(C(c2ccccc2)c2ccccc2)CC1)N1CCOCC1 | inconclusive: 1.4 nM
O=S(=O)(NCc1cccnc1)c1ccc(Cl)c(Cl)c1Cl | inconclusive: 1.8 nM
Cc1cc(C)c2cc(CN(CCO)C(=O)Nc3ccc(F)cc3)c(=O)[nH]c2c1 | inconclusive: 1.7 nM
O=C1C2C3C=CC(C3)C2C(=O)N1c1ccncc1 (configuration not stated) | inconclusive: 1.3 nM
Nc1cc(-c2ccncc2)c[nH]c1=O | inactive
O=C(Cn1c(NCCO)nc2ccccc21)c1ccc(Cl)cc1 | inconclusive: 1.5 nM
CCCCc1ccc(S(=O)(=O)NCCc2ccncc2)cc1 | inconclusive: 1.6 nM
Cc1cc(-c2nnc(-c3ccccc3)c(-c3ccccc3)n2)c(C)o1 | inconclusive: 1.1 nM
Cc1nc2ccccc2nc1N1CCC(C)CC1 | inconclusive: 1.1 nM
CC(C)Cn1c(N)c(C(=O)COC(=O)c2ccc3c(c2)OCCO3)c(=O)n(C)c1=O | inconclusive: 1.2 nM
CCC(=O)Nc1cc(C)c(NC(=O)C23CC4CC(CC(C4)C2)C3)cn1 | inconclusive: 1.6 nM
CC(C)COC(=O)n1c(SCC(=O)N(C)C)nc2ccccc21 | inconclusive: 1.1 nM
COc1cccc(-c2csc(N3CCN(S(=O)(=O)c4ccc(F)cc4)CC3)n2)c1 | inconclusive: 1.1 nM
O=C(CN(CCc1ccccc1)C(=O)CN1C(=O)COc2ccccc21)NCc1ccco1 | inconclusive: 1.4 nM

SMILES | max dye-equivalent concentration
COc1ccc(F)cc1CN1CCN(c2cc(C)nc3c4c(C)cc(C)nc4nn23)CC1 | inconclusive: 1.1 nM
O=C(Nc1ccccc1)c1cccc(N2CCCC2=O)c1 | inconclusive: 1.3 nM
O=C(CSc1ccccc1C(=O)NCCCN1CCCC1=O)NCc1ccco1 | inconclusive: 1.2 nM
O=C(NCc1ccccc1F)C1CCN(C(=O)NCc2ccccc2)CC1 | inactive
CCC(Sc1nc(C)cc(=O)[nH]1)C(=O)Nc1nc2c(s1)CCCC2 (configuration not stated) | inconclusive: 1.9 nM
CC(=O)NC(Cc1ccc(C(C)C)cc1)C(=O)NC1CCN(c2nc(C)cc(C)n2)CC1 (configuration not stated) | inconclusive: 2 nM
Cc1ccc(S(=O)(=O)NCCNC(=O)C2CCCNC2=O)cc1 (configuration not stated) | inconclusive: 1.4 nM
CCc1n[nH]c2c1/C(=N/O)CCC2 | inconclusive: 1.4 nM
Cc1cccc(C)c1NC(=O)C(c1cccs1)N(Cc1ccco1)C(=O)Cn1nnc2ccccc21 (configuration not stated) | inconclusive: 1.3 nM
CCCS(=O)(=O)c1c(S(=O)(=O)CCC)c2cnccn2c1C(=O)c1ccc(F)cc1 | inconclusive: 1.4 nM
O=c1c2ccccc2c(C=NCCO)c(O)n1-c1ccccc1 | inconclusive: 1.1 nM
COc1cccc(Nc2ncccc2C(=O)O)c1 | inconclusive: 1.4 nM
COCCCNC(=O)c1cn(Cc2c(F)cccc2Cl)nn1 | inconclusive: 1.7 nM
CCN(CC)CCN1C(=O)C(O)=C(C(C)=O)C1c1ccccc1 (configuration not stated) | inconclusive: 1.8 nM
O=c1c2[nH]c3ccccc3c2ncn1C1CCCCC1 | inconclusive: 1.3 nM
CC1(C)NC(=O)NC2(C)NC(=O)NC(C)(C)C12 (configuration not stated) | inconclusive: 1.8 nM
Cc1cc(C)c(NC(=O)CN2C(=O)NC3(CCCCC3)C2=O)c(Cl)c1 | inconclusive: 1.3 nM
N#CC(C(=O)NC1CCCCC1)c1nc2ccccc2nc1N1CCCCC1 (configuration not stated) | inactive
Cc1cnc(C(=O)Nc2cccc(-c3nnc4n3CCCCC4)c2)cn1 | inconclusive: 2.2 nM
N#Cc1c(N)sc(=S)c2c1CCCC2 | inconclusive: 1.3 nM
COc1ccc(N2CCN(C(=O)CCCOc3cc(=O)n(C)c4ccccc34)CC2)cc1 | inconclusive: 1.1 nM
CC(C)[C@H](NC(=O)OC(C)(C)C)c1nnc(SCc2cccc(F)c2)o1 | inconclusive: 1.1 nM

Another view of some results above:
O=C1C2C3C=CC(C3)C2C(=O)N1c1ccncc1 (configuration not stated)
  max dye-equivalent concentration: inconclusive: 1.3 nM
Nc1cc(-c2ccncc2)c[nH]c1=O
  max dye-equivalent concentration: inactive
O=C(Cn1c(NCCO)nc2ccccc21)c1ccc(Cl)cc1
  max dye-equivalent concentration: inconclusive: 1.5 nM
CCCCc1ccc(S(=O)(=O)NCCc2ccncc2)cc1
  max dye-equivalent concentration: inconclusive: 1.6 nM

The listing continues:

SMILES | max dye-equivalent concentration
C=CCNc1nc(N2CCCC2)nc2ccccc12 | inconclusive: 2.4 nM
CS(=O)(=O)c1ccc(Cl)c(NC(=O)COC(=O)CNC(=O)c2ccc(Br)o2)c1 | inconclusive: 1.4 nM
Cc1ccc(-c2c(C)n([O-])c3c([n+]2=O)CCC3)o1 | inconclusive: 1.6 nM
Cc1nonc1OCCNC(=O)C12CC3CC(CC(C3)C1)C2 | inconclusive: 1.7 nM
N#C[C@@H](Cc1ccc(O)c(O)c1)C(=O)N1CCc2ccccc21 | inactive
COc1ccccc1N1CCN(C(=O)CSc2nnc(-c3ccoc3C)o2)CC1 | inconclusive: 2.1 nM
Cc1ccc(NC(=O)c2ccccc2)s1 | inconclusive: 1.7 nM
Cc1cc(F)ccc1S(=O)(=O)Nc1ccccc1C(=O)Nc1ncn[nH]1 | inconclusive: 1.3 nM
COc1ccc2c(c1)Cc1sc(NC(C)=O)nc1-2 | inconclusive: 1.3 nM
CCOc1ccc(Nc2nc(Cc3nnc(SCC(=O)NCc4ccco4)n3CC)cs2)cc1 | inconclusive: 1.1 nM
COc1ccc(S(=O)(=O)N(C)CC(=O)Nc2ccc(F)cc2)cc1 | inconclusive: 1.1 nM
CC(C)[C@@H]1OC(=O)C=CC=CC=CC=CC=CC[C@@H](O)[C@H](C)[C@@H](O)C[C@H](O)C[C@H](O)C[C@H](O)C[C@H](O)C[C@H](O)C[C@H](O)C=C[C@@H]1C | inconclusive: 2.6 nM
COc1ccc(C(=O)c2oc3ccccc3c2N)cc1 | inconclusive: 1.2 nM
Cc1nnc(SCc2cc(=O)n3[nH]cnc3n2)s1 | inconclusive: 1.5 nM
CN(CC(=O)N1CCCCCC1)S(=O)(=O)c1ccc(Br)s1 | inconclusive: 1.3 nM
O=C(O)CSc1nc2ccccc2o1 | inconclusive: 1.4 nM
CCC(C)(C)n1nnnc1C(c1cccs1)N1CCc2ccccc21 (configuration not stated) | inconclusive: 1.3 nM
COc1nccc(Nc2ccccc2)c1C#N | inconclusive: 1.3 nM
Cc1cc(N2CCN(C3CCCC3)CC2)n2ncc(-c3ccccc3)c2n1 | inconclusive: 1.1 nM
COc1ccc(-c2nc(N3CCOCC3)nc3n[nH]c(N)c23)cc1 | inconclusive: 2.3 nM
Cc1cc(NC(=O)c2noc3c2CCCC3)nn1Cc1ccc(Cl)cc1 | inconclusive: 1.3 nM
CSc1nsc(SCCN2C(=O)c3ccccc3C2=O)n1 | inconclusive: 1.2 nM

SMILES | max dye-equivalent concentration
CC(C)c1nc2sc3c(SCC(=O)NCc4ccco4)ncnc3c2c2c1CCC2 | inconclusive: 1.1 nM
Cc1nn(-c2ccc(F)cc2)c(C)c1NS(=O)(=O)c1ccc(Cl)cc1 | inconclusive: 1.7 nM
O=[N+]([O-])c1ccc(C2=Nn3c(nnc3-c3ccc(Cl)cc3)SC2)o1 | inconclusive: 1.2 nM
COc1ccc(S(=O)(=O)N2CCC(C(=O)NCc3ccccn3)CC2)cc1C | inconclusive: 1.6 nM
CN(C)CCOC(=O)COc1ccc(Cl)cc1 | inconclusive: 1.4 nM
CCC1Oc2ccccc2N(CC(=O)NCCC2=CCCCC2)C1=O (configuration not stated) | inconclusive: 1.3 nM
CCN(CC)c1ccc2c(C)c(-c3ccc(N)cc3)c(=O)oc2c1 | inconclusive: 1.7 nM
Cc1c(NC(=O)CN2CC(C)OC(C)C2)c(=O)n(-c2ccccc2)n1C (configuration not stated) | inconclusive: 2.2 nM
CN1CCC(OC(=O)COc2ccc(C(C)(C)C)cc2)CC1 | inactive
CCOC(=O)COc1cc2c3c(c(=O)oc2cc1C)CCCC3 | inconclusive: 1.3 nM
Brc1c(NC2=NCCN2)ccc2nccnc12 | inconclusive: 1.6 nM
Cc1ccc(S(=O)(=O)N2CC(O)CC2C(=O)Nc2ccc3c(c2)CCC3)cc1 (configuration not stated) | inconclusive: 1.7 nM
Cc1ccc(C)n1-c1cc(S(=O)(=O)N2CCOCC2)ccc1N1CCCC1 | inactive
CCn1c(SCC(=O)N2CCCc3ccccc32)nc2c1c(=O)n(C)c(=O)n2C | inconclusive: 1.3 nM
O=C(OC(C(=O)NC1CCCC1)c1ccccc1F)c1ccco1 (configuration not stated) | inconclusive: 1.2 nM
Cn1c(SCc2nc(-c3cccs3)no2)nnc1C1CCCCC1 | inconclusive: 1.5 nM
C[C@H](N=C(NC#N)Nc1ccncc1)C(C)(C)C | inconclusive: 1.6 nM
Cc1ccc(C)c(NC(=O)CSc2nnc(CCCCCNC(=O)OC(C)(C)C)o2)c1 | inconclusive: 2.5 nM
CCOC(=O)c1cnn(-c2cc(C)nc3c(-c4ccccc4)cnn23)c1N | inconclusive: 1.3 nM
CSc1nc(-c2ccco2)nn1S(=O)(=O)c1ccccc1 | inconclusive: 1.6 nM
CC(=O)Nc1ccc(NC(=O)Oc2ccccc2)cc1 | inconclusive: 1.1 nM

Arranged by heavy-atom count (smallest number first): part of the list above.
SMILES | max dye-equivalent concentration
CCCCc1ccc(S(=O)(=O)NCCc2ccncc2)cc1 | inconclusive: 1.6 nM
O=C(OC(C(=O)NC1CCCC1)c1ccccc1F)c1ccco1 (configuration not stated) | inconclusive: 1.2 nM
CCC(=O)Nc1cc(C)c(NC(=O)C23CC4CC(CC(C4)C2)C3)cn1 | inconclusive: 1.6 nM
